The supplement of paper PMC4604168 (melanoma cell lines)
The other results are listed elsewhere or left out. Repeats are few or missing, and single values can be far off.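 Cells were imaged in 1,536-well plates, and nuclei stained with an antibody against cleaved PARP were counted against all DNA-stained nuclei to give the apoptosis fraction. Screening doses were chosen to leave most cells alive, and resting and induced cleaved-PARP levels differ strongly between cell lines.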

What was measured:
Experiment in all cases: cleaved PARP positive nuclei fraction relative to DMSO control; melanoma cells; higher = more apoptosis
Conditions in all cases: library dose: low library concentration; 72 h
[1] = test system: 501Mel
[2] = test system: A101D
[3] = test system: A2058
[4] = test system: A375
[5] = test system: C32
[6] = test system: CBRC008 (line from a melanoma biopsy)
[7] = test system: CBRC014 (line from a melanoma biopsy)
[8] = test system: CBRC016 (line from a melanoma biopsy)
[9] = test system: CBRC017 (line from a melanoma biopsy)
[10] = test system: CBRC034 (line from a melanoma biopsy)
[11] = test system: COLO792
[12] = test system: COLO800
[13] = test system: COLO829
[14] = test system: G361
[15] = test system: IPC-298
[16] = test system: IST-MEL1
[17] = test system: LB2518-MEL
[18] = test system: LOXIMVI
[19] = test system: MEL-HO
[20] = test system: CBRC013 (line from a melanoma biopsy)

SMILES	cleaved PARP positive nuclei fraction [1] [%]	cleaved PARP positive nuclei fraction [2] [%]	cleaved PARP positive nuclei fraction [3] [%]	cleaved PARP positive nuclei fraction [4] [%]	cleaved PARP positive nuclei fraction [5] [%]	cleaved PARP positive nuclei fraction [6] [%]	cleaved PARP positive nuclei fraction [7] [%]	cleaved PARP positive nuclei fraction [8] [%]	cleaved PARP positive nuclei fraction [9] [%]	cleaved PARP positive nuclei fraction [10] [%]	cleaved PARP positive nuclei fraction [11] [%]	cleaved PARP positive nuclei fraction [12] [%]	cleaved PARP positive nuclei fraction [13] [%]	cleaved PARP positive nuclei fraction [14] [%]	cleaved PARP positive nuclei fraction [15] [%]	cleaved PARP positive nuclei fraction [16] [%]	cleaved PARP positive nuclei fraction [17] [%]	cleaved PARP positive nuclei fraction [18] [%]	cleaved PARP positive nuclei fraction [19] [%]	cleaved PARP positive nuclei fraction [20] [%]
Cn1c(=O)n(-c2ccc(C(C)(C)C#N)cc2)c2c3cc(-c4cnc5ccccc5c4)ccc3ncc21 + Nc1ncn([C@H]2C[C@H](O)[C@@H](CO)O2)c(=O)n1 [decitabine] (first compound 0.004 µM, partner dose 0.1 µM)	140	51	234	176	75.9	152	107	145	116	44.6	83.7	137	48.3	192	279	72.5	125	156	53.9	
Nc1nc(F)nc2c1ncn2[C@@H]1O[C@H](CO)[C@@H](O)[C@@H]1O [fludarabine] + Cc1cc(N2CCOCC2)cc2[nH]c(-c3c(NC[C@@H](O)c4cccc(Cl)c4)cc[nH]c3=O)nc12 [BMS536924] (first compound 0.2 µM, partner dose 0.2 µM)	2310	52.2	131	17900	79.2	257	111	29.8	87.3		129	146	63.8	93.7	190	52.4	103	72.9	136	460
O=C(O)c1ccc2c(c1)nc(Nc1cccc(Cl)c1)c1ccncc12 + Cn1cncc1[C@@](N)(c1ccc(Cl)cc1)c1ccc2c(c1)c(-c1cccc(Cl)c1)cc(=O)n2C [tipifarnib] (first compound 0.4 µM, partner dose 0.01 µM)	93.5	79.9	150	139	74.8	60.2	132	72.7	187		128	45.1	111	221	154	124	91.5	92.7	99.5	150
C=C(c1ccc(C(=O)O)cc1)c1cc2c(cc1C)C(C)(C)CCC2(C)C [Bexarotene] + C=CCNC1=C2C[C@@H](C)C[C@H](OC)[C@H](O)[C@@H](C)/C=C(\C)[C@H](OC(N)=O)[C@@H](OC)/C=C\C=C(/C)C(=O)NC(=CC1=O)C2=O [Tanespimycin] (first compound 2 µM, partner dose 0.002 µM)	75.3	109	101	64.2	71.7	219	115	136	120	68.7	133	81.3	100	126	89.2	65.4	175	44.8	111	
CO[C@H]1C[C@@H]2CC[C@@H](C)[C@@](O)(O2)C(=O)C(=O)N2CCCC[C@H]2C(=O)O[C@H]([C@H](C)C[C@@H]2CC[C@@H](OCCO)[C@H](OC)C2)CC(=O)[C@H](C)/C=C(\C)[C@@H](O)[C@@H](OC)C(=O)[C@H](C)C[C@H](C)/C=C/C=C/C=C/1C [everolimus] + Nc1nc(F)nc2c1ncn2[C@@H]1O[C@H](CO)[C@@H](O)[C@@H]1O [fludarabine] (first compound 0.02 µM, partner dose 0.2 µM)	5660	133	98.9	5490	50.6	127	100	158	244	40.6	169	141	106	288	66.7	178	133	21.8	183	
Cn1c(=O)n(-c2ccc(C(C)(C)C#N)cc2)c2c3cc(-c4cnc5ccccc5c4)ccc3ncc21 + OCc1c[nH]c2ccccc12 [Indole-3-carbinol] (first compound 0.004 µM, partner dose 0.8 µM)	123	115	73.8	219	312	87.4	97.7	143	109	86.8	82	186	67.6	129	248	153	58.1	99.9	142	
C[C@@H](Oc1cc(-c2cnn(C3CCNCC3)c2)cnc1N)c1c(Cl)ccc(F)c1Cl [Crizotinib] + OCc1c[nH]c2ccccc12 [Indole-3-carbinol] (first compound 0.2 µM, partner dose 0.8 µM)	94.8	129	81.2	77	120	52.7	80	68.2	106	60	66	45.9	70.9	83.7	58.7	33.8	55.1	106	98.1	
C[C@@H](Oc1cc(-c2cnn(C3CCNCC3)c2)cnc1N)c1c(Cl)ccc(F)c1Cl [Crizotinib] + Cn1nnc2c(C(N)=O)ncn2c1=O [temozolomide] (first compound 0.2 µM, partner dose 2 µM)	84	96	140	136	71.6	111	95	123	122	55.8	224	136	70.7	164	217	85.2	129	248	187	
CNC(=O)c1cc(Oc2ccc(NC(=O)Nc3ccc(Cl)c(C(F)(F)F)c3)cc2)ccn1 [sorafenib] + Nc1ncn([C@H]2C[C@H](O)[C@@H](CO)O2)c(=O)n1 [decitabine] (first compound 0.4 µM, partner dose 0.1 µM)	80.8	103	84	40	79.7	33.5	82.6	145	86.8	54.6	54.9	59.3	66.2	47.7	63.7	151	57.2	122	111	
C[C@@H](Oc1cc(-c2cnn(C3CCNCC3)c2)cnc1N)c1c(Cl)ccc(F)c1Cl [Crizotinib] + Nc1ncn([C@H]2C[C@H](O)[C@@H](CO)O2)c(=O)n1 [decitabine] (first compound 0.2 µM, partner dose 0.1 µM)	94.3	47.7	71.4	40	74.8	207	96.6	118	146	47.6	83.6	113	86.9	93.1	64.3	49.5	98.5	138	180	
Cc1cc(Nc2cc(N3CCN(C)CC3)nc(/C=C/c3ccccc3)n2)n[nH]1 + CO[C@H]1C[C@@H]2CC[C@@H](C)[C@@](O)(O2)C(=O)C(=O)N2CCCC[C@H]2C(=O)O[C@H]([C@H](C)C[C@@H]2CC[C@@H](OCCO)[C@H](OC)C2)CC(=O)[C@H](C)/C=C(\C)[C@@H](O)[C@@H](OC)C(=O)[C@H](C)C[C@H](C)/C=C/C=C/C=C/1C [everolimus] (first compound 0.04 µM, partner dose 0.02 µM)	146	123	236	1040	85.6	448	84.8	116	151	161	84.8	77.5	354	271	381	111	319	44.9	69.4	
Nc1ccn([C@@H]2O[C@H](CO)[C@@H](O)C2(F)F)c(=O)n1 [gemcitabine] + C[C@]1(c2nc3c(C(N)=O)cccc3[nH]2)CCCN1 [Veliparib] (first compound 0.0004 µM, partner dose 1.4 µM)	64.4	316	133	145	137	62.2	416	165	115	167	169	150	111	170	102	97.1	110	58.6	98.1	
O=C(O)[C@@H]1[O][Sb](=[O])([O][Sb]2(=[O])[O][C@H]([C@H](O)CO)[C@H](O)[C@H](C(=O)O)[O]2)[O][C@H]([C@H](O)CO)[C@@H]1O (stereo not given in full) [stibogluconate] + O=C(O)c1ccc2c(c1)nc(Nc1cccc(Cl)c1)c1ccncc12 [CX4945] (first compound 2 µM, partner dose 0.4 µM)	109	133	160	86.1	161	79.9	108	190	125	62.3	99.8	98.9	61.4	126	132	71.9	199	38.2	95	
Cc1cc(Nc2cc(N3CCN(C)CC3)nc(/C=C/c3ccccc3)n2)n[nH]1 + Cn1c(=O)n(-c2ccc(C(C)(C)C#N)cc2)c2c3cc(-c4cnc5ccccc5c4)ccc3ncc21 [NVP-BEZ235] (first compound 0.04 µM, partner dose 0.004 µM)	69.3	119	13.5	320	75.4	24.9	86.1	46.9	103	61.7	175	52.7	104	78.9	42.8	53.4	60.6	90.1	75.3	
O=C(O)c1ccc2c(c1)nc(Nc1cccc(Cl)c1)c1ccncc12 + Nc1ccn([C@@H]2O[C@H](CO)[C@@H](O)C2(F)F)c(=O)n1 [gemcitabine] (first compound 0.4 µM, partner dose 0.0004 µM)	46.9	39.2	146	101	72.9	263	176	367	262	492	201	94.4	223	91.3	392	193	73.4	452	135	

2 neighbouring entries already listed, for reference:
SMILES	cleaved PARP positive nuclei fraction [1] [%]	cleaved PARP positive nuclei fraction [2] [%]	cleaved PARP positive nuclei fraction [3] [%]	cleaved PARP positive nuclei fraction [4] [%]	cleaved PARP positive nuclei fraction [5] [%]	cleaved PARP positive nuclei fraction [6] [%]	cleaved PARP positive nuclei fraction [7] [%]	cleaved PARP positive nuclei fraction [8] [%]	cleaved PARP positive nuclei fraction [9] [%]	cleaved PARP positive nuclei fraction [10] [%]	cleaved PARP positive nuclei fraction [11] [%]	cleaved PARP positive nuclei fraction [12] [%]	cleaved PARP positive nuclei fraction [13] [%]	cleaved PARP positive nuclei fraction [14] [%]	cleaved PARP positive nuclei fraction [15] [%]	cleaved PARP positive nuclei fraction [16] [%]	cleaved PARP positive nuclei fraction [17] [%]	cleaved PARP positive nuclei fraction [18] [%]	cleaved PARP positive nuclei fraction [19] [%]	cleaved PARP positive nuclei fraction [20] [%]
Cn1c(=O)n(-c2ccc(C(C)(C)C#N)cc2)c2c3cc(-c4cnc5ccccc5c4)ccc3ncc21 + OCc1c[nH]c2ccccc12 [Indole-3-carbinol] (first compound 0.004 µM, partner dose 0.8 µM)	123	115	73.8	219	312	87.4	97.7	143	109	86.8	82	186	67.6	129	248	153	58.1	99.9	142	
C[C@@H](Oc1cc(-c2cnn(C3CCNCC3)c2)cnc1N)c1c(Cl)ccc(F)c1Cl [Crizotinib] + OCc1c[nH]c2ccccc12 [Indole-3-carbinol] (first compound 0.2 µM, partner dose 0.8 µM)	94.8	129	81.2	77	120	52.7	80	68.2	106	60	66	45.9	70.9	83.7	58.7	33.8	55.1	106	98.1	
